The source of these data is patent US11608341B2, “Substituted tetrahydropyrazolo[3,4-d]pyrimidines and tetrahydropyrazolo[4,3-d]pyrimidines as C5A receptor modulators” (Idorsia Pharmaceuticals Ltd., priority 2018, dated 2023).

Sequences of proteins named here, by UniProt entry; tags and fusion partners are left off.
UniProt P21730, whole entry: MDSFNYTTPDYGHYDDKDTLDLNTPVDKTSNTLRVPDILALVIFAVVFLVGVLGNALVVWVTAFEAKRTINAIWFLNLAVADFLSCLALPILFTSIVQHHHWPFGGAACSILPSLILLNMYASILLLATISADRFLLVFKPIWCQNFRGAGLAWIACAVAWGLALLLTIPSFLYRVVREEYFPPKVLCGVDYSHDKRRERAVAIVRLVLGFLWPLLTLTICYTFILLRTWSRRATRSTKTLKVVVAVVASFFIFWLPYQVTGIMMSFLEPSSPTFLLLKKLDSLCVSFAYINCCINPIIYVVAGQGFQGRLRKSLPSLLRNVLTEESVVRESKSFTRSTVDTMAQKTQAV

Structures are written as SMILES. Structures were worked out from names or drawings and are uncertain.

The assay has as its target C5AR1 (Homo sapiens, UniProt P21730). The experiment in a line: In vitro assay: antagonism of C5a-induced beta-arrestin recruitment (PathHunter) in CHO-K1 C5AR1 beta-arrestin cell line. The note with it: read-out: C5aR IC50, antagonistic activity, 1-10 nM C5a agonist, geometric mean where several measurements. For orientation: Arrestin recruitment assays detect the binding of arrestin to an activated receptor.

On to `Cc1cccc(F)c1N1CCC(N2Cc3cn(C)nc3N(Cc3ccccc3C(F)(F)F)C2=O)CC1`, for which the IC50 (usually the point on the concentration scale where inhibition reaches its midpoint) came out at 14 nM.
